Experimental data: PubChem BioAssay AID602196 (INSERM, 2012)

- Test: 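Modifiers of cisplatin sensitivity in A549 cells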
- System: human A549 lung cancer cells
- Reagents: siRNA pair against human genes
- Time to read-out: 48 h transfection before cisplatin; time from cisplatin to read-out not stated
- Challenge: cisplatin at a dose killing half of control-siRNA cells; exact dose and duration not given
- Measured: 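Shift in cisplatin death relative to control siRNA, from -50 (all cells die) to +50 (no cells die); siRNAs harmful on their own scored 0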
- Direction: two-siRNA summed score (-2 to +2): higher = both siRNAs protect from cisplatin killing; -2 means both sensitise; mean protection from cisplatin (shift in death): higher = protection from cisplatin killing
- Active means: 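siRNAs harmful alone (LDH or WST-1) get 0; others get +1 for less and -1 for more cisplatin killing; genes are active when the two siRNAs give the same sign, summing to ±2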
- Meaning of the calls: active = both siRNAs shift cisplatin killing the same way; inactive = no consistent shift, or siRNA harmful alone
The deposit covers about 23,000 reagents; this is a random part of them. 455 of them (2%) were called active. 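Active includes both protection and sensitisation; some change values fall well beyond the stated -50 to +50 range.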 Entries without a mark were called inactive. Further read-outs or replicates are left out here. The record does not give: the amount of reagent.

The first 7 records, ahead of the listing:
no.	gene symbol	two-siRNA summed score (-2 to +2)	mean protection from cisplatin (shift in death) (%)
1	RNF212	0	9.6
2	CARD10	0	6.7
3	LOC441504	0	8.8
4	GOT2	-1	-17.9
5	MAPKAPK5-AS1	0	-17.8
6	LOC390733	1	9.2
7	LOC387720 (retired record)	1	17.2

Main list, from the start:
no.	gene symbol	two-siRNA summed score (-2 to +2)	mean protection from cisplatin (shift in death) (%)
1	RNF212	0	9.6
2	CARD10	0	6.7
3	LOC441504	0	8.8
4	GOT2	-1	-17.9
5	MAPKAPK5-AS1	0	-17.8
6	LOC390733	1	9.2
7	LOC387720 (retired record)	1	17.2
8	LOC388686	0	3.9
9	GAP43	0	0.4
10	LOC390427	1	17.7
11	DDX27	0	14.7
12	LOC440025	1	10.9
13	TTC5	0	3.1
14	NEK11	-1	-3
15	LOC441689	1	10.7
16	AIF1L	0	5.2
17	SS18L1	1	12.6
18	LRRC8D	1	17.6
19	LINC02716	0	4.8
20	SERPINA7	-1	-7.5
21	LOC345537	0	-2.6
22	LOC442243	1	6.6
23	RPS6KA1	0	2.7
24	NCCRP1	0	-1.4
25	VEPH1	0	1.6
26	CXCL1	0	7.9
27	TUBA8	0	-2.3
28	KCNA10	-1	-11.3
29	SLC25A24	0	9.3
30	ZNF197	0	3.3
31	ARR3	1	8.2
32	LOC391427	1	16.6
33	RCL1	2 (active)	13
34	PTGER4	0	7.5
35	LOC440401	0	18.5
36	TDRD3	0	1.4
37	LOC388530	0	16.3
38	ZNF768	0	13.6
39	SLC25A44	0	-2.2
40	LOC345378	0	6.2
41	CD276	0	-18.1
42	SEC22B	0	5.3
43	KAT14	1	4.1
44	STK36	0	3.4
45	LOC442015	0	18.9
46	MYBL2	0	1.6
47	SPANXA1	0	19.9
48	NBEA	-1	-1.5
49	S1PR5	0	-0.2
50	ZC3H11A	0	4.8
51	BTF3	0	8.2
52	LINC01587	0	10.2
53	COX8C	0	9.7
54	LOC338914	1	14.1
55	FAM178B	0	0.3
56	HNRNPA1P39	0	8.8
57	LOC346157	0	16.7
